Paper PMC5974751, “NKp44-Derived Peptide Binds Proliferating Cell Nuclear Antigen and Mediates Tumor Cell Death” (Frontiers in Immunology, 2018)

Sequences of proteins named here, by UniProt entry; tags and fusion partners are left off. A change or cut given only in a name is not applied to a line headed by its entry.
UniProt O95150: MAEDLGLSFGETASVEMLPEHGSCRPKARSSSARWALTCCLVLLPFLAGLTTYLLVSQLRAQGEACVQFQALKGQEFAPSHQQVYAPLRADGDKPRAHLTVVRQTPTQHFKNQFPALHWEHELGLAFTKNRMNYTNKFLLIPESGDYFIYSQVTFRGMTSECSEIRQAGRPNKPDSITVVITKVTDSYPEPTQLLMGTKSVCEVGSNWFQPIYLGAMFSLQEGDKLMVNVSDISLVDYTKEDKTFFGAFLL

Key:
HNF4 = assay: ELISA; plates coated overnight at 4°C with 2 µg/ml recombinant protein; blocked with PBS + 2.5% skim milk; 0-8 µM biotinylated NKp44-derived peptides, 2 h at room temperature; streptavidin-HRP; both purified
TL1A = TL1A (UniProt O95150); assay: as above

EASALVCIRLVTSSKPRTVA (biotin (N-terminal)) [biotinylated NKp44-derived peptide #8] was tested, and the binding (HNF4) was “no binding (tested: 5 µg/ml)” and the binding (TL1A) was “no binding (tested: 5 µg/ml)”.

Results are given in words; binding and its absence hold for the method and conditions named.
